Structures can show the parent of a compound that is named as a salt. The list shows a part of the results. Hit calls seldom repeat between salt and free forms of one compound.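 Kinases, fused to nanoluciferase, were expressed in K562 cells; luminescence was measured every 4 h from 2 to 18 h as percent of control (DMSO = 100%, positive control = 0%). A time point is decreased if signal falls significantly (2 sigma). Hits were called by the authors by a rule that is not shown; the count of time points alone does not decide it.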
What was measured:
Assay in all cases: kinase-Nluc reporter destabilization hit call (1 = scored as downregulated) (binary); higher = compound decreases kinase abundance
Details in all cases: K562; 2-18 h
PDPK1 = PDPK1 (UniProt O15530)
PIK4CA = PIK4CA (UniProt P42356)
PIK4CB = PIK4CB (UniProt Q9UBF8)
PLK1 = PLK1 (UniProt P53350)
PRKAA1 = PRKAA1 (UniProt Q13131)
PRKCA = PRKCA (UniProt P17252)
PTK2 = PTK2 (UniProt Q05397)
PTK2B = PTK2B (UniProt Q14289)
RAF1 = RAF1 (UniProt P04049)
[1] = target: RAF1_S257L (clone: RAF1_mut) (UniProt P04049)

Sequences of proteins named here, by UniProt entry; tags and fusion partners are left off. A change or cut given only in a name is not applied to a line headed by its entry.
UniProt O15530: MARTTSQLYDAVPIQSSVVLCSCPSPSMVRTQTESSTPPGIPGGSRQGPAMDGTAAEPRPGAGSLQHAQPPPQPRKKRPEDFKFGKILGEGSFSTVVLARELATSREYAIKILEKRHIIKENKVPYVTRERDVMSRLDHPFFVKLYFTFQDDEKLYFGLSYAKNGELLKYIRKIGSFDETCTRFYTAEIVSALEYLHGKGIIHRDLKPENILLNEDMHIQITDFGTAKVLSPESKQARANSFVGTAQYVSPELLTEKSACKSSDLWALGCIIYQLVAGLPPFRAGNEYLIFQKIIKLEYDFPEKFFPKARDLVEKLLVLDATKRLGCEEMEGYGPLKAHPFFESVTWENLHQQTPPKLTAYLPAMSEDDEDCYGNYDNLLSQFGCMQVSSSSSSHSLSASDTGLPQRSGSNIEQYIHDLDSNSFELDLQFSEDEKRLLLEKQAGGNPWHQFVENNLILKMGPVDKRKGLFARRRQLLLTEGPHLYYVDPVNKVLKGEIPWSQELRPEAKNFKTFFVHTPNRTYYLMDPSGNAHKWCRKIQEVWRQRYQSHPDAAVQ
UniProt P42356, whole entry, looked up: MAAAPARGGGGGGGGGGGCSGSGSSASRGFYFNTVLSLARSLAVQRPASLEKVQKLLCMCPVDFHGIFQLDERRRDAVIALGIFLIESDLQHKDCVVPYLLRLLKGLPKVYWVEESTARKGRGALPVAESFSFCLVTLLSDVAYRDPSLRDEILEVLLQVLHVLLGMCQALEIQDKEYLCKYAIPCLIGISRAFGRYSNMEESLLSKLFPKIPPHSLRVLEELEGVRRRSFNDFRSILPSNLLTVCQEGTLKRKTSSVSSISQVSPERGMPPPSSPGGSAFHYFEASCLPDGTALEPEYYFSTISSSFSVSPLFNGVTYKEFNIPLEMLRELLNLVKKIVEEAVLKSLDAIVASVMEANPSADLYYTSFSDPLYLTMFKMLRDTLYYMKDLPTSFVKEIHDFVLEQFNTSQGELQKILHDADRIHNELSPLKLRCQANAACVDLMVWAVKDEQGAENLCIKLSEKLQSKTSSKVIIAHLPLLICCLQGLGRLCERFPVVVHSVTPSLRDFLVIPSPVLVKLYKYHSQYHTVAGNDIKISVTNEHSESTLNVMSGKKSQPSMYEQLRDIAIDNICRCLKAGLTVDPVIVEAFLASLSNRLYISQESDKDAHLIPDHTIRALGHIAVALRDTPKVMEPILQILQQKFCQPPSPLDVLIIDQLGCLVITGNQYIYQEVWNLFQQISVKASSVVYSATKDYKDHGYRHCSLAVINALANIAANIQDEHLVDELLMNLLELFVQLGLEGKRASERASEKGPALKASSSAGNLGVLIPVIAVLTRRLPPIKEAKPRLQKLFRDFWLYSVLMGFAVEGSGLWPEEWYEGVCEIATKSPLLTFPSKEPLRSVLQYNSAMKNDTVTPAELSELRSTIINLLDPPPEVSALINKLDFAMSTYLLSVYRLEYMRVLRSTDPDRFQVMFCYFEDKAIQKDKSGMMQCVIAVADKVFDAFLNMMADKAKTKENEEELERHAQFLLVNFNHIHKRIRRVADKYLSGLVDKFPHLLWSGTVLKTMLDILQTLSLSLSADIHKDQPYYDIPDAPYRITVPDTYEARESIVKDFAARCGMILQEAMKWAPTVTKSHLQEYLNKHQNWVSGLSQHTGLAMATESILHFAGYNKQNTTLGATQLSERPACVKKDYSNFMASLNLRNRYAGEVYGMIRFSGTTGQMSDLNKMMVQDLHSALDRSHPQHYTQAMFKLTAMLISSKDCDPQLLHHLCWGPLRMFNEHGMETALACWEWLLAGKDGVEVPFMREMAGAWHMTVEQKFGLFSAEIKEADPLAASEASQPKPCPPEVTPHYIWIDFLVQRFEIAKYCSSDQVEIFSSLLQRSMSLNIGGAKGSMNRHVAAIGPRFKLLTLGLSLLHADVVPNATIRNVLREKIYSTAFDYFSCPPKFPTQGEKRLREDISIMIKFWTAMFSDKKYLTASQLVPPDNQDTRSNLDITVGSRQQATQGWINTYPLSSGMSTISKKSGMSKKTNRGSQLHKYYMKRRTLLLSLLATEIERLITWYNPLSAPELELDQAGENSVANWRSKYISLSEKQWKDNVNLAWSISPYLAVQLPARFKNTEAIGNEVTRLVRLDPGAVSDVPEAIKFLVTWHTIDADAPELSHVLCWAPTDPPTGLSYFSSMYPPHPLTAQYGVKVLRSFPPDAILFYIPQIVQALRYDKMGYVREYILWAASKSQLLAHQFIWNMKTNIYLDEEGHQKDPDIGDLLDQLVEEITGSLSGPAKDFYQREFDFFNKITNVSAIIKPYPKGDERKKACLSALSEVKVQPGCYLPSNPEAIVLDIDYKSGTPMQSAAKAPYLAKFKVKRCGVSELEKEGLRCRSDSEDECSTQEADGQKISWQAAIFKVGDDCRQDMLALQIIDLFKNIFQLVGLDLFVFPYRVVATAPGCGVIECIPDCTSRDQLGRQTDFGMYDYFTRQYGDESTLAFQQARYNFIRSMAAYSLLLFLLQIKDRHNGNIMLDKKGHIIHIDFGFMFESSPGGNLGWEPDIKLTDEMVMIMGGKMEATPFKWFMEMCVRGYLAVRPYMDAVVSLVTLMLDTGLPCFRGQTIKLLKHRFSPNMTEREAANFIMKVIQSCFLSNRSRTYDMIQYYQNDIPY
UniProt Q9UBF8: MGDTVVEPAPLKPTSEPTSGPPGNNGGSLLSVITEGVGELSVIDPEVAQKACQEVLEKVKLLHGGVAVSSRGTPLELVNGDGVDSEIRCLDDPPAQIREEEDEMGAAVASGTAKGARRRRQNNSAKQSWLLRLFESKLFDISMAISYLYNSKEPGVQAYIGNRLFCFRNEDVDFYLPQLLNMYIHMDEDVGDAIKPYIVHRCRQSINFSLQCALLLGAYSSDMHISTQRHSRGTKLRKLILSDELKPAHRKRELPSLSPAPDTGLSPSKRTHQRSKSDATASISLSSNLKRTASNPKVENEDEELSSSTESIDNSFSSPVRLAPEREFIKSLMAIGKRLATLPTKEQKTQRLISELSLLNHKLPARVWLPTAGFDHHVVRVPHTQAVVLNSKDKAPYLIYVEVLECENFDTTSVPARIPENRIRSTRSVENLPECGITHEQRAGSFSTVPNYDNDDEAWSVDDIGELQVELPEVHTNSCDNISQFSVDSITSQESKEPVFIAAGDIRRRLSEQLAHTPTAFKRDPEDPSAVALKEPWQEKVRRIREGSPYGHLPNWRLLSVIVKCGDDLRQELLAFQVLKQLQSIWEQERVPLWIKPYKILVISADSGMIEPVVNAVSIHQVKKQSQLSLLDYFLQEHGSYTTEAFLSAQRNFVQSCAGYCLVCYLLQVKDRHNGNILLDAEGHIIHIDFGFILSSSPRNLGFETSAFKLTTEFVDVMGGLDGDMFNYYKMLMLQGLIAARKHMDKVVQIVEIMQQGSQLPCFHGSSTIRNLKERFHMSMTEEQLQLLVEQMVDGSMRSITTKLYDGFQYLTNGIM
UniProt P53350, whole entry: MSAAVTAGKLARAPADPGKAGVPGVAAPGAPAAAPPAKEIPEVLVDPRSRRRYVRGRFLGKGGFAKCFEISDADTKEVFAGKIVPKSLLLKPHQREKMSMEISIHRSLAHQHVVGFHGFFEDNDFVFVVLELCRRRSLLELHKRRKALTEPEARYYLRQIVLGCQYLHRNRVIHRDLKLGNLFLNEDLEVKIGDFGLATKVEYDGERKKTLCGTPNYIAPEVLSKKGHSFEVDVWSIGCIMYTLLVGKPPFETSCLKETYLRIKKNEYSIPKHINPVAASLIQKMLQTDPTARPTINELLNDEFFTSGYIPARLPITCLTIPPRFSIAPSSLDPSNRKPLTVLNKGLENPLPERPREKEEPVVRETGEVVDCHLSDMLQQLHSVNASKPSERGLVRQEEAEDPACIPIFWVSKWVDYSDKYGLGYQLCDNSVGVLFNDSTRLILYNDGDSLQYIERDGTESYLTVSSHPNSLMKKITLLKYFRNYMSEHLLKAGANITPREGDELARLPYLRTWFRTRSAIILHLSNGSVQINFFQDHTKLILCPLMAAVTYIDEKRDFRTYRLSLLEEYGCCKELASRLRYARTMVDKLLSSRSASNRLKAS
UniProt Q13131: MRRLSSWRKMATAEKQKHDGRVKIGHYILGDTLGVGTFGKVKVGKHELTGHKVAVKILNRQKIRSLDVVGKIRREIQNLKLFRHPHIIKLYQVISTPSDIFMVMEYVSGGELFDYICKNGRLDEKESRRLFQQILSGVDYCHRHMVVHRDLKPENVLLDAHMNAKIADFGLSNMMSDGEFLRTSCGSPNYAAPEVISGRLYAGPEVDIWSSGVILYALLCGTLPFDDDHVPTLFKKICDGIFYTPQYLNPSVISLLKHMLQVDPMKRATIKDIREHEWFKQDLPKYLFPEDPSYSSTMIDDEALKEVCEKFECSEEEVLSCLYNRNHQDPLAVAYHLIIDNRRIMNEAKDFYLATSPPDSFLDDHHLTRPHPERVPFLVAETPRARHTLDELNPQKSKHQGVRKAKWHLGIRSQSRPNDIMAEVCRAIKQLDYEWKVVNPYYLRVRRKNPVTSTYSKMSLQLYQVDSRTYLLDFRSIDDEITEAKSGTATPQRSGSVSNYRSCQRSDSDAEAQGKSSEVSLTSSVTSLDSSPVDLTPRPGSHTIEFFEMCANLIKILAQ
UniProt Q05397, whole entry, looked up: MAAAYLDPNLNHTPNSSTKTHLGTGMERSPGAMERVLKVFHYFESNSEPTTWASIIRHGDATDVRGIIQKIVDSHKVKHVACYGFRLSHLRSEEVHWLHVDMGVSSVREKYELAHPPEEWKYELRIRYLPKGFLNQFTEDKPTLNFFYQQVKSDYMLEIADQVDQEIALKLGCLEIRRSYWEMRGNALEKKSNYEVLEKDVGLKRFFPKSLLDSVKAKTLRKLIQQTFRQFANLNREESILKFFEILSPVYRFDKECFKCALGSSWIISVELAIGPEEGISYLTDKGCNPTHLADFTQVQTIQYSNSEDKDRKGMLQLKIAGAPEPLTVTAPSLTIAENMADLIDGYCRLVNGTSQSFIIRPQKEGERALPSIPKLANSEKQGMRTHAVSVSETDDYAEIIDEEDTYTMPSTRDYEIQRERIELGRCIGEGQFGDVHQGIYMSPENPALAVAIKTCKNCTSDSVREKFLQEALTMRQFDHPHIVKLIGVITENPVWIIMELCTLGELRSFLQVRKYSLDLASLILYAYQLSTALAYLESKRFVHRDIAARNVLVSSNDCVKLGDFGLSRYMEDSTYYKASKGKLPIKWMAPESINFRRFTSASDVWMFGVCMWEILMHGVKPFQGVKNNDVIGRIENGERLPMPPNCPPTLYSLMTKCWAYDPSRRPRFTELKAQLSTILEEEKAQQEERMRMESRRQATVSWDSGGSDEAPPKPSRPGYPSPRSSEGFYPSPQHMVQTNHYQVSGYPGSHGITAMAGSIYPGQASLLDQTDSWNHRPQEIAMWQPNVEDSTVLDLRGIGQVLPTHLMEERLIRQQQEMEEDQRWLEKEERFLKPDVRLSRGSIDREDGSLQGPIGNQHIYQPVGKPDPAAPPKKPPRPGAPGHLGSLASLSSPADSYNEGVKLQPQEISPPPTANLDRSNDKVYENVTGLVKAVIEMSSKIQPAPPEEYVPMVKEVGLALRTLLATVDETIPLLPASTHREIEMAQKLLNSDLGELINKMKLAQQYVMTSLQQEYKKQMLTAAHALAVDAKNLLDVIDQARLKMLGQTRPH

Measured: kinase-Nluc reporter destabilization hit call

CC[C@H](Nc1ncnc2[nH]cnc12)c1oc2ccccc2c(=O)c1-c1cccc(F)c1 [Tenalisib] (10 µM)
inactive: PDPK1 = 0 | PIK4CA 0 | PIK4CB 0 | PLK1 = 0 | PRKAA1 = 0 | PRKCA 0 | PTK2 = 0 | PTK2B 0 | RAF1 = 0 | [1] 0

CCCNC(=O)c1cn2ncnc(Nc3cc(C(=O)NC4CC4)ccc3C)c2c1C (10 µM)
inactive: PDPK1 = 0 | PIK4CA 0 | PIK4CB 0 | PLK1 = 0 | PRKAA1 = 0 | PRKCA 0 | PTK2 = 0 | PTK2B 0 | RAF1 = 0 | [1] 0

O=c1ccc2ccc(O)c(O)c2o1 [Daphnetin] (10 µM)
inactive: PDPK1 = 0 | PIK4CA 0 | PIK4CB 0 | PLK1 = 0 | PRKAA1 = 0 | PRKCA 0 | PTK2 = 0 | PTK2B 0 | RAF1 = 0 | [1] 0

O=Nc1c(-c2c(O)[nH]c3ccccc23)[nH]c2ccccc12 [Indirubin-3'-monoxime] (2.5 µM)
inactive: PDPK1 = 0 | PIK4CA 0 | PIK4CB 0 | PLK1 = 0 | PRKAA1 = 0 | PRKCA 0 | PTK2 = 0 | PTK2B 0 | RAF1 = 0 | [1] 0

Nc1cc(C(F)(F)F)c(-c2nc(N3CCOCC3)nc(N3CCOCC3)n2)cn1 [Bimiralisib] (10 µM)
inactive: PDPK1 = 0 | PIK4CA 0 | PIK4CB 0 | PLK1 = 0 | PRKAA1 = 0 | PRKCA 0 | PTK2 = 0 | PTK2B 0 | RAF1 = 0 | [1] 0

CC1(N)CCN(c2cnc3c(-c4cccc(Cl)c4Cl)[nH]nc3n2)CC1 (2.5 µM)
inactive: PDPK1 = 0 | PIK4CA 0 | PIK4CB 0 | PLK1 = 0 | PRKAA1 = 0 | PRKCA 0 | PTK2 = 0 | PTK2B 0 | RAF1 = 0 | [1] 0

Cc1cc(C(C)Nc2ccccc2)c2nc(N3CCOCC3)cc(=O)n2c1 (stereo not given) (10 µM)
inactive: PDPK1 = 0 | PIK4CA 0 | PIK4CB 0 | PLK1 = 0 | PRKAA1 = 0 | PRKCA 0 | PTK2 = 0 | PTK2B 0 | RAF1 = 0 | [1] 0

CC(C)c1ccc(CC(=O)N2CCN(c3ccc(C#N)nn3)CC2)cc1 (10 µM)
inactive: PDPK1 = 0 | PIK4CA 0 | PIK4CB 0 | PLK1 = 0 | PRKAA1 = 0 | PRKCA 0 | PTK2 = 0 | PTK2B 0 | RAF1 = 0 | [1] 0

NC(=O)c1ccc(-c2cnn3ccc(NCc4cccnc4)nc23)cc1 (2.5 µM)
inactive: PDPK1 = 0 | PIK4CA 0 | PIK4CB 0 | PLK1 = 0 | PRKAA1 = 0 | PRKCA 0 | PTK2 = 0 | PTK2B 0 | RAF1 = 0 | [1] 0

Nc1nc2cc(-c3ccc4ncc(C(=O)N5CCOCC5)n4c3)ccc2o1 [Serabelisib] (10 µM)
inactive: PDPK1 = 0 | PIK4CA 0 | PIK4CB 0 | PLK1 = 0 | PRKAA1 = 0 | PRKCA 0 | PTK2 = 0 | PTK2B 0 | RAF1 = 0 | [1] 0

O=S(=O)(c1cccc2cnccc12)N1CCNCC1 (10 µM)
inactive: PDPK1 = 0 | PIK4CA 0 | PIK4CB 0 | PLK1 = 0 | PRKAA1 = 0 | PRKCA 0 | PTK2 = 0 | PTK2B 0 | RAF1 = 0 | [1] 0

COc1cnccc1Nc1nc(-c2nn(Cc3c(F)cc(OCCO)cc3F)c3ccccc23)ncc1OC (10 µM)
inactive: PDPK1 = 0 | PIK4CA 0 | PIK4CB 0 | PLK1 = 0 | PRKAA1 = 0 | PRKCA 0 | PTK2 = 0 | PTK2B 0 | RAF1 = 0 | [1] 0

Three compounds from above, sorted by heavy-atom count, ascending.
CC(C)c1ccc(CC(=O)N2CCN(c3ccc(C#N)nn3)CC2)cc1 (10 µM)
inactive: PDPK1 = 0 | PIK4CA 0 | PIK4CB 0 | PLK1 = 0 | PRKAA1 = 0 | PRKCA 0 | PTK2 = 0 | PTK2B 0 | RAF1 = 0 | [1] 0

Nc1nc2cc(-c3ccc4ncc(C(=O)N5CCOCC5)n4c3)ccc2o1 [Serabelisib] (10 µM)
inactive: PDPK1 = 0 | PIK4CA 0 | PIK4CB 0 | PLK1 = 0 | PRKAA1 = 0 | PRKCA 0 | PTK2 = 0 | PTK2B 0 | RAF1 = 0 | [1] 0

COc1cnccc1Nc1nc(-c2nn(Cc3c(F)cc(OCCO)cc3F)c3ccccc23)ncc1OC (10 µM)
inactive: PDPK1 = 0 | PIK4CA 0 | PIK4CB 0 | PLK1 = 0 | PRKAA1 = 0 | PRKCA 0 | PTK2 = 0 | PTK2B 0 | RAF1 = 0 | [1] 0

Next results follow:

Cc1ccc(-c2ncn(-c3ccc(Nc4nccc(-c5cccc(N6CCOCC6)c5)n4)cc3)n2)cn1 (10 µM)
inactive: PDPK1 = 0 | PIK4CA 0 | PIK4CB 0 | PLK1 = 0 | PRKAA1 = 0 | PRKCA 0 | PTK2 = 0 | PTK2B 0 | RAF1 = 0 | [1] 0

COc1cc(C(C)=O)cc(OC)c1O [Acetosyringone] (10 µM)
inactive: PDPK1 = 0 | PIK4CA 0 | PIK4CB 0 | PLK1 = 0 | PRKAA1 = 0 | PRKCA 0 | PTK2 = 0 | PTK2B 0 | RAF1 = 0 | [1] 0

O=C(O)c1ccccc1Nc1cccc(C(F)(F)F)c1 [Flufenamic acid] (10 µM)
inactive: PDPK1 = 0 | PIK4CA 0 | PIK4CB 0 | PLK1 = 0 | PRKAA1 = 0 | PRKCA 0 | PTK2 = 0 | PTK2B 0 | RAF1 = 0 | [1] 0

CN1CC[C@H](c2c(O)cc(O)c3c(=O)cc(-c4ccc(C(F)(F)F)cc4Cl)oc23)[C@H]1CO [(2S,3R)-Voruciclib (hydrochloride)] (2.5 µM)
inactive: PDPK1 = 0 | PIK4CA 0 | PIK4CB 0 | PLK1 = 0 | PRKAA1 = 0 | PRKCA 0 | PTK2 = 0 | PTK2B 0 | RAF1 = 0 | [1] 0

C=C[C@H]1[C@H](O[C@@H]2O[C@H](CO)[C@@H](O)[C@H](O)[C@H]2OC(=O)c2c(O)cc(O)cc2-c2cccc(O)c2)OC=C2C(=O)OCC[C@H]21 [Amarogentin] (10 µM)
inactive: PDPK1 = 0 | PIK4CA 0 | PIK4CB 0 | PLK1 = 0 | PRKAA1 = 0 | PRKCA 0 | PTK2 = 0 | PTK2B 0 | RAF1 = 0 | [1] 0

CC(=O)Nc1nc(C)c(-c2nc(N3CCCC(O)C3)no2)s1 (stereo not given) (10 µM)
inactive: PDPK1 = 0 | PIK4CA 0 | PIK4CB 0 | PLK1 = 0 | PRKAA1 = 0 | PRKCA 0 | PTK2 = 0 | PTK2B 0 | RAF1 = 0 | [1] 0

CCOc1nc(Nc2ccc(C(=O)N3CCOCC3)cc2OC)nc2[nH]ccc12 [LRRK2 inhibitor 1] (2.5 µM)
inactive: PDPK1 = 0 | PIK4CA 0 | PIK4CB 0 | PLK1 = 0 | PRKAA1 = 0 | PRKCA 0 | PTK2 = 0 | PTK2B 0 | RAF1 = 0 | [1] 0

Nc1cc(C(F)F)c(-c2nc(N3C4CCC3COC4)nc(N3C4CCC3COC4)n2)cn1 (2.5 µM)
inactive: PDPK1 = 0 | PIK4CA 0 | PIK4CB 0 | PLK1 = 0 | PRKAA1 = 0 | PRKCA 0 | PTK2 = 0 | PTK2B 0 | RAF1 = 0 | [1] 0

CC(C)Oc1ccc(-c2cnc3c(-c4ccnc5ccccc45)cnn3c2)cc1 (10 µM)
inactive: PDPK1 = 0 | PIK4CA 0 | PIK4CB 0 | PLK1 = 0 | PRKAA1 = 0 | PRKCA 0 | PTK2 = 0 | PTK2B 0 | RAF1 = 0 | [1] 0

C[C@@H]1CCc2ncc(F)cc2[C@H]2CCCN2c2ccn3ncc(c3n2)C(=O)N1 [Selitrectinib] (10 µM)
inactive: PDPK1 = 0 | PIK4CA 0 | PIK4CB 0 | PLK1 = 0 | PRKAA1 = 0 | PRKCA 0 | PTK2 = 0 | PTK2B 0 | RAF1 = 0 | [1] 0

c1ccc(-c2nn3c(c2-c2ccnc4cc(OCCN5CCOCC5)ccc24)CCC3)nc1 (10 µM)
inactive: PDPK1 = 0 | PIK4CA 0 | PIK4CB 0 | PLK1 = 0 | PRKAA1 = 0 | PRKCA 0 | PTK2 = 0 | PTK2B 0 | RAF1 = 0 | [1] 0

CCCCOc1ccc(CC/C=C2\SC(=O)N(CCN)C2=O)cc1 [K145 (hydrochloride)] (2.5 µM)
inactive: PDPK1 = 0 | PIK4CA 0 | PIK4CB 0 | PLK1 = 0 | PRKAA1 = 0 | PRKCA 0 | PTK2 = 0 | PTK2B 0 | RAF1 = 0 | [1] 0

Cc1cc(Nc2nc(N[C@@H](C)c3ncc(F)cn3)ncc2Cl)[nH]n1 (10 µM)
inactive: PDPK1 = 0 | PIK4CA 0 | PIK4CB 0 | PLK1 = 0 | PRKAA1 = 0 | PRKCA 0 | PTK2 = 0 | PTK2B 0 | RAF1 = 0 | [1] 0

C[C@@H]1COCCN1c1cc(=O)n2c(n1)N(Cc1cncc(Cl)c1)[C@H](C(F)(F)F)CC2 (10 µM)
inactive: PDPK1 = 0 | PIK4CA 0 | PIK4CB 0 | PLK1 = 0 | PRKAA1 = 0 | PRKCA 0 | PTK2 = 0 | PTK2B 0 | RAF1 = 0 | [1] 0

C[C@H]1Cc2ccccc2N1C(=O)Cc1nc(N2CCOCC2)cc(=O)[nH]1 (2.5 µM)
inactive: PDPK1 = 0 | PIK4CA 0 | PIK4CB 0 | PLK1 = 0 | PRKAA1 = 0 | PRKCA 0 | PTK2 = 0 | PTK2B 0 | RAF1 = 0 | [1] 0

Source: the supplement of paper PMC12823440, “Inhibitors supercharge kinase turnover through native proteolytic circuits” (Nature, 2025)
